Test results from patent US20130337579.
For part of these data: No signal at the amounts used counts as a negative. For part of these data: The comparison behind a weaker result is the experiment's own reference, which may not be listed here. For part of these data: For at least one entry, the source does not settle the construct or the ends of the probe.

Sequences of proteins named here, by UniProt entry; tags and fusion partners are left off. A change or cut given only in a name is not applied to a line headed by its entry. Residues count along the entry.
UniProt P22629: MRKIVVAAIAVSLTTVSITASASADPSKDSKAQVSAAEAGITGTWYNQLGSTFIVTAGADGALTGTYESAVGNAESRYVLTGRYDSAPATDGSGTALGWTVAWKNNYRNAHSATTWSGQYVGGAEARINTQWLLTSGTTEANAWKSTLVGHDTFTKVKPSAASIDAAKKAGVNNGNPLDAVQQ
UniProt P0ACJ8, 2-210: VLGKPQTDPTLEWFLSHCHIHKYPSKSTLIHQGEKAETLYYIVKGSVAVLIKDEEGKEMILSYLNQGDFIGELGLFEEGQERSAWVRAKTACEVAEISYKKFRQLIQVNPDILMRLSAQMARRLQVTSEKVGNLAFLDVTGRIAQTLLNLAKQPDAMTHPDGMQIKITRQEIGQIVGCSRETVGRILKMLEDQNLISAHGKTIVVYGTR

What was measured:
Streptavidin = Streptavidin (UniProt P22629); experiment: binding assay; settings: DRaCALA; no biotin; purified native protein; protein details: Sigma Aldrich; label: 5'-32P; only the site is given
[1] = molecular target: CRP (cited studies) (Escherichia coli) (UniProt P0ACJ8); experiment: filter binding; settings: CITED Gunasekera 1992, label: 32P
[2] = molecular target: CRP (cited studies) (Escherichia coli) (UniProt P0ACJ8); experiment: FP; settings: label: 32P
[3] = molecular target: CRP (catabolite activator protein, cAMP receptor protein) (Escherichia coli) (UniProt P0ACJ8); experiment: binding assay; settings: DRaCALA; very low binding; 100 nM CRP, 4 nM probe, 200 uM cAMP; purified recombinant protein; label: 5'-32P; variant of ICAP oligo duplex (gd126/gd127)

Question: Does “AATAAATCTCATCTAGATGAGATTTTAG (double strand) [8,10:G-C PCR probe ~600 bp, no biotin (insert unit given)]” bind (Streptavidin)?
Answer: no binding

Question: How did the Kd ([1]; 200 uM cAMP, variant of ICAP oligo (Gunasekera 1992)) turn out when “AATAAATGTCATCTAGATGACATTTTAG (double strand) [10:G-C oligo (Gunasekera 1992)]” was run?
Answer: > 100 nM

Question: Does “AATAAATGTGATCTAGATCACATTTTAG (double strand) [ICAP PCR probe ~600 bp, no biotin (ICAP insert given)]” bind (Streptavidin)?
Answer: no binding

Question: How did the Kd [2] turn out when “AATAAATGTGATCTAGATCACATTTTAG (double strand) [ICAP oligo (Gunasekera 1992)]” was run?
Answer: 0.7 nM

Question: What about the Kd ([1]; no cAMP) of the same sequence?
Answer: > 100 nM

Question: Does “AGGAGGAATAAATCTGATCTAGATCAGATTTTAGAGGAGG (double strand) [8:G-C oligo duplex (gd128/gd129)]” bind [3]?
Answer: binds more weakly
